The target in this assay is deglycosylated human sFlt-1 (human). Put plainly: size exclusion chromatography of the mixture. (SEC sorts molecules by how far they enter the pores of the column.)

No constants are given. Whether binding was seen depends on the method and setting. Binding can be weak; no strength is given.

B1: anti-Flt-1 antibody 21B3 (antibody, V domains shown)
VH: ELQLVESGGGLVQPGGSLRLSCAASGFTFRDYSMSWVRQAPGKGLEWVSAISWNGDSTYYAESMKGRFTISRDNAKNTLYLQMNSLKSEDTAVYYCAKSWATPIESLYYYGMDYWGKGTLVTVSS
VL: SYELTQSPSVSVALRQTAKITCGGNNIGSQTAQWYQQKPGQAPVLVIYANNRRPSGIPERFSGSKSGNTATLTISGAQAEDEADYYCQVWDGSTQAIVFGGGTHLTVL
notes: VL is LC_21B3; IgG with wild-type Fc; also called 21B3 WT; clone 21B3
With B1, the binding result is “binds”.

Source of the values: patent US20180072806A1 (SHIRE HUMAN GENETIC THERAPIES, published 2018).
